What all share (experiment): pull-down; called coimmunoprecipitation by the paper; His-tagged protein as bait on Ni2+ resin, FLAG-tagged protein passed through; washes with 20 and 40 mM imidazole, elution with 250 mM imidazole; Western blot with anti-His and anti-FLAG; 'purified protein samples'; both purified
(In western blotting, separated proteins are transferred to a membrane and probed.)

One test concerns the target T1, UvrA-6His (E. coli) (UniProt P0A698).
T1 sequence: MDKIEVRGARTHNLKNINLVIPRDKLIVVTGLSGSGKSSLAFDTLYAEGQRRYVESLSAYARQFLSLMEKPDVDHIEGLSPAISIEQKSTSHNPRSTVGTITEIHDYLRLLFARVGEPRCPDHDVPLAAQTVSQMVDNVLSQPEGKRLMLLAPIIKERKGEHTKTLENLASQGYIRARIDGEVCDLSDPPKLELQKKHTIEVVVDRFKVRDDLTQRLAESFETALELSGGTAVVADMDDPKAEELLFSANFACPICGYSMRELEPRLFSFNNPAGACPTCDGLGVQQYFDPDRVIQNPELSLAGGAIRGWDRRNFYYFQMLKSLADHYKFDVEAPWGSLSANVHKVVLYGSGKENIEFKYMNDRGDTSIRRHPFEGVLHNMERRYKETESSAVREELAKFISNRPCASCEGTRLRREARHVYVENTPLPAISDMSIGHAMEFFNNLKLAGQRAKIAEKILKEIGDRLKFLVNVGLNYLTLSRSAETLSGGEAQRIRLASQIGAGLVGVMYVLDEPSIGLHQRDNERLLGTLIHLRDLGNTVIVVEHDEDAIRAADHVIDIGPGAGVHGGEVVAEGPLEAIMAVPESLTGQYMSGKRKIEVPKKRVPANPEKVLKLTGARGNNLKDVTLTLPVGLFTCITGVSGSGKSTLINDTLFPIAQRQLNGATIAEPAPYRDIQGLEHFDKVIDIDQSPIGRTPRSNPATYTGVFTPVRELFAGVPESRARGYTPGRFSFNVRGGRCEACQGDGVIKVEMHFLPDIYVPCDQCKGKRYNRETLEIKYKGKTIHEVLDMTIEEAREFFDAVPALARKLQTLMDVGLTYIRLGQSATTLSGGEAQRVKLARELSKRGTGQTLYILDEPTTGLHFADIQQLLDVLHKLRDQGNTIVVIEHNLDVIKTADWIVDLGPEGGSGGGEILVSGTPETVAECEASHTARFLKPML

Test [1] deals with M1-23-6His (Pectobacterium bacteriophage ΦM1).
The target in test [2] is M1-O-23-6His (Pectobacterium bacteriophage ΦM1 (escape mutant ΦM1-O)).

No constants are given. Whether binding was seen depends on the method and setting. Binding seen in cells or lysates may run through a third protein. For some of these results: Binding calls can cover weak binding; strength is not graded here. Where a sequence is shown, tags or fusion partners need not be part of it.

With M1-O-23FLAG, the binding entry in the test with UvrA-6His (E. coli) is “no binding”.
Same read-out and setting: in the case of “M1-23-FLAG (Pectobacterium bacteriophage ΦM1)” it was “binds”.

B1: UvrA-FLAG (enzyme, UniProt P0A698 1-940)
chain: T1 sequence
As to B1, the binding result is on record as “binds” in test [1] and “no binding” in test [2].

The values above are taken from publication PMC5377504.
